# Measured values from US5616606A, “Oligopeptide antiretroviral agents” (priority 1995, dated 1997).
# Some of these results come from one statement about several compounds together. For at least one compound, name, drawing or mass did not settle the structure.
# Test system: HBV
# Assay: inhibition of HBV DNA replication in 2.2.15 cell cultures
# Assay type: cell-based
# Settings: tested at 50 and 10 μM; compared with 2',3'-ddC
row,Structure (SMILES),effect on HBV replication (in words)
1,"Cl.Cl.Cn1cc(NC(=O)c2cc(NC(=O)CC(=O)Nc3cc(C(=O)Nc4cc(C(=O)NCCC(N)=O)n(C)c4)n(C)c3)cn2C)cc1C(=O)NCCC(N)=O [Compound 4, N,N'-Di(1-methyl-2-[1-methyl-2-carboxamido(3-proprionamide)-4-pyrrole]-4-pyrrolyl)malonamide dihydrochloride]",no significant effect
2,"Cl.Cl.Cn1cc(NC(=O)c2cc(NC(=O)CCCCC(=O)Nc3cc(C(=O)Nc4cc(C(=O)NCCC(=N)N)n(C)c4)n(C)c3)cn2C)cc1C(=O)NCCC(=N)N [Compound 7, N,N'-Di(1-methyl-2-[1-methyl-2-carboxamido(3-proprionamidine)-4-pyrrole]-4-pyrrolyl) adipamide dihydrochloride]",no significant effect
